Our source for the binding values is publication doi:10.1101/2024.03.26.586525 (bioRxiv, 2024).

No constants are given. Whether binding was seen depends on the method and setting. Some results given as binding are weak or reduced against the parent protein; the word gives no strength. For some of these results: Sequences can lack the tags named with a protein.

The target in assay [1] is Acs1 C-terminally tagged with GFP (Acs1-GFP) (S. cerevisiae) (UniProt Q01574). The assay is described as follows: cryo-electron tomography.
For assay [2], the target named is Acs1 K675A (acs1^K675A) (S. cerevisiae) (UniProt Q01574). As to the kind of experiment: cryo-electron tomography.
Assay [3] has as its target acetyl-coenzyme A synthetase 1 (Acs1) (S. cerevisiae (endogenous in SK1 cells)) (UniProt Q01574). The assay is described as follows: cryo-electron tomography.
The target is the same in assay [4]. As to the kind of experiment: cryo-electron tomography. The source holds these as a separate data set.
Assay [5] shares this target. The assay is described as follows: cryo-EM structure.
Assay [6] has as its target Acs1 wild-type control (ACS1^WT, reconstituted acs1Δ strain) (S. cerevisiae) (UniProt Q01574). The assay is described as follows: cryo-electron tomography.
Assay [7] addresses aldehyde dehydrogenase 4 (Ald4) (S. cerevisiae (endogenous in SK1 cells)) (UniProt P46367). As to the kind of experiment: cryo-electron tomography.
Assay [8] has the same target. The assay is described as follows: cryo-electron tomography. This is another data set of the same source.
For assay [9] the target is unchanged. As to the kind of experiment: cryo-EM structure.
Assay [10] concerns the target Ald4 interface mutant (ald4^int) (S. cerevisiae) (UniProt P46367). As to the kind of experiment: cryo-electron tomography.

B1: Acs1 C-terminally tagged with GFP (Acs1-GFP) (enzyme, UniProt Q01574 1-713)
chain: MSPSAVQSSKLEEQSSEIDKLKAKMSQSAATAQQKKEHEYEHLTSVKIVPQRPISDRLQPAIATHYSPHLDGLQDYQRLHKESIEDPAKFFGSKATQFLNWSKPFDKVFIPDPKTGRPSFQNNAWFLNGQLNACYNCVDRHALKTPNKKAIIFEGDEPGQGYSITYKELLEEVCQVAQVLTYSMGVRKGDTVAVYMPMVPEAIITLLAISRIGAIHSVVFAGFSSNSLRDRINDGDSKVVITTDESNRGGKVIETKRIVDDALRETPGVRHVLVYRKTNNPSVAFHAPRDLDWATEKKKYKTYYPCTPVDSEDPLFLLYTSGSTGAPKGVQHSTAGYLLGALLTMRYTFDTHQEDVFFTAGDIGWITGHTYVVYGPLLYGCATLVFEGTPAYPNYSRYWDIIDEHKVTQFYVAPTALRLLKRAGDSYIENHSLKSLRCLGSVGEPIAAEVWEWYSEKIGKNEIPIVDTYWQTESGSHLVTPLAGGVTPMKPGSASFPFFGIDAVVLDPNTGEELNTSHAEGVLAVKAAWPSFARTIWKNHDRYLDTYLNPYPGYYFTGDGAAKDKDGYIWILGRVDDVVNVSGHRLSTAEIEAAIIEDPIVAECAVVGFNDDLTGQAVAAFVVLKNKSSWSTATDDELQDIKKHLVFTVRKDIGPFAAPKLIILVDDLPKTRSGKIMRRILRKILAGESDQLGDVSTLSNPGIVRHLIDSVKL
Consider B1, for which, in assay [1], the binding result was “binds”.

B2: Acs1 K675A (acs1^K675A) (enzyme, UniProt Q01574 1-713)
chain: MSPSAVQSSKLEEQSSEIDKLKAKMSQSAATAQQKKEHEYEHLTSVKIVPQRPISDRLQPAIATHYSPHLDGLQDYQRLHKESIEDPAKFFGSKATQFLNWSKPFDKVFIPDPKTGRPSFQNNAWFLNGQLNACYNCVDRHALKTPNKKAIIFEGDEPGQGYSITYKELLEEVCQVAQVLTYSMGVRKGDTVAVYMPMVPEAIITLLAISRIGAIHSVVFAGFSSNSLRDRINDGDSKVVITTDESNRGGKVIETKRIVDDALRETPGVRHVLVYRKTNNPSVAFHAPRDLDWATEKKKYKTYYPCTPVDSEDPLFLLYTSGSTGAPKGVQHSTAGYLLGALLTMRYTFDTHQEDVFFTAGDIGWITGHTYVVYGPLLYGCATLVFEGTPAYPNYSRYWDIIDEHKVTQFYVAPTALRLLKRAGDSYIENHSLKSLRCLGSVGEPIAAEVWEWYSEKIGKNEIPIVDTYWQTESGSHLVTPLAGGVTPMKPGSASFPFFGIDAVVLDPNTGEELNTSHAEGVLAVKAAWPSFARTIWKNHDRYLDTYLNPYPGYYFTGDGAAKDKDGYIWILGRVDDVVNVSGHRLSTAEIEAAIIEDPIVAECAVVGFNDDLTGQAVAAFVVLKNKSSWSTATDDELQDIKKHLVFTVRKDIGPFAAPKLIILVDDLPKTRSGAIMRRILRKILAGESDQLGDVSTLSNPGIVRHLIDSVKL
Turning to B2, the binding result in assay [2] is on record as “no binding”.

B3: acetyl-coenzyme A synthetase 1 (Acs1) (enzyme, S. cerevisiae (endogenous in SK1 cells), UniProt Q01574 1-713, looked up)
chain: MSPSAVQSSKLEEQSSEIDKLKAKMSQSAATAQQKKEHEYEHLTSVKIVPQRPISDRLQPAIATHYSPHLDGLQDYQRLHKESIEDPAKFFGSKATQFLNWSKPFDKVFIPDPKTGRPSFQNNAWFLNGQLNACYNCVDRHALKTPNKKAIIFEGDEPGQGYSITYKELLEEVCQVAQVLTYSMGVRKGDTVAVYMPMVPEAIITLLAISRIGAIHSVVFAGFSSNSLRDRINDGDSKVVITTDESNRGGKVIETKRIVDDALRETPGVRHVLVYRKTNNPSVAFHAPRDLDWATEKKKYKTYYPCTPVDSEDPLFLLYTSGSTGAPKGVQHSTAGYLLGALLTMRYTFDTHQEDVFFTAGDIGWITGHTYVVYGPLLYGCATLVFEGTPAYPNYSRYWDIIDEHKVTQFYVAPTALRLLKRAGDSYIENHSLKSLRCLGSVGEPIAAEVWEWYSEKIGKNEIPIVDTYWQTESGSHLVTPLAGGVTPMKPGSASFPFFGIDAVVLDPNTGEELNTSHAEGVLAVKAAWPSFARTIWKNHDRYLDTYLNPYPGYYFTGDGAAKDKDGYIWILGRVDDVVNVSGHRLSTAEIEAAIIEDPIVAECAVVGFNDDLTGQAVAAFVVLKNKSSWSTATDDELQDIKKHLVFTVRKDIGPFAAPKLIILVDDLPKTRSGKIMRRILRKILAGESDQLGDVSTLSNPGIVRHLIDSVKL
Turning to B3, the binding result in assay [3], in assay [4] and in [5] was “binds” in each case.

B4: Acs1 wild-type control (ACS1^WT, reconstituted acs1Δ strain) (enzyme, UniProt Q01574 1-713)
chain: MSPSAVQSSKLEEQSSEIDKLKAKMSQSAATAQQKKEHEYEHLTSVKIVPQRPISDRLQPAIATHYSPHLDGLQDYQRLHKESIEDPAKFFGSKATQFLNWSKPFDKVFIPDPKTGRPSFQNNAWFLNGQLNACYNCVDRHALKTPNKKAIIFEGDEPGQGYSITYKELLEEVCQVAQVLTYSMGVRKGDTVAVYMPMVPEAIITLLAISRIGAIHSVVFAGFSSNSLRDRINDGDSKVVITTDESNRGGKVIETKRIVDDALRETPGVRHVLVYRKTNNPSVAFHAPRDLDWATEKKKYKTYYPCTPVDSEDPLFLLYTSGSTGAPKGVQHSTAGYLLGALLTMRYTFDTHQEDVFFTAGDIGWITGHTYVVYGPLLYGCATLVFEGTPAYPNYSRYWDIIDEHKVTQFYVAPTALRLLKRAGDSYIENHSLKSLRCLGSVGEPIAAEVWEWYSEKIGKNEIPIVDTYWQTESGSHLVTPLAGGVTPMKPGSASFPFFGIDAVVLDPNTGEELNTSHAEGVLAVKAAWPSFARTIWKNHDRYLDTYLNPYPGYYFTGDGAAKDKDGYIWILGRVDDVVNVSGHRLSTAEIEAAIIEDPIVAECAVVGFNDDLTGQAVAAFVVLKNKSSWSTATDDELQDIKKHLVFTVRKDIGPFAAPKLIILVDDLPKTRSGKIMRRILRKILAGESDQLGDVSTLSNPGIVRHLIDSVKL
In the case of B4, the binding result in [6] was “binds”.

B5: aldehyde dehydrogenase 4 (Ald4) (enzyme, S. cerevisiae (endogenous in SK1 cells), UniProt P46367 25-519, looked up)
chain: SHLPMTVPIKLPNGLEYEQPTGLFINNKFVPSKQNKTFEVINPSTEEEICHIYEGREDDVEEAVQAADRAFSNGSWNGIDPIDRGKALYRLAELIEQDKDVIASIETLDNGKAISSSRGDVDLVINYLKSSAGFADKIDGRMIDTGRTHFSYTKRQPLGVCGQIIPWNFPLLMWAWKIAPALVTGNTVVLKTAESTPLSALYVSKYIPQAGIPPGVINIVSGFGKIVGEAITNHPKIKKVAFTGSTATGRHIYQSAAAGLKKVTLELGGKSPNIVFADAELKKAVQNIILGIYYNSGEVCCAGSRVYVEESIYDKFIEEFKAASESIKVGDPFDESTFQGAQTSQMQLNKILKYVDIGKNEGATLITGGERLGSKGYFIKPTVFGDVKEDMRIVKEEIFGPVVTVTKFKSADEVINMANDSEYGLAAGIHTSNINTALKVADRVNAGTVWINTYNDFHHAVPFGGFNASGLGREMSVDALQNYLQVKAVRAKLDE
With B5, the binding entry in assay [7], in assay [8] and in assay [9] was “binds” throughout.

B6: Ald4 interface mutant (ald4^int) (enzyme, UniProt P46367 25-519)
chain: SHLPMTVPIKLPNGLEYEQPTGLFINNKFVPSKQNETFEVINPSTEEEICHIYEGREDDVEEAVQAADRAFSNGSWNGIDPIDRGKALYRLAELIEQDKDVIASIETLDNGKAISSSRGDVDLVINYLKSSAGFADKIDGRMIDTGRTHFSYTKRQPLGVCGQIIPWNFPLLMWAWKIAPALVTGNTVVLKTAESTPLSALYVSKYIPQAGIPPGVINIVSGFGEAVGEAITNHPKIKKVAFTGSTATGRHIYQSAAAGLKKVTLELGGKSPNIVFADAELKKAVQNIILGIYYNSGEVCCAGSRVYVEESIYDKFIEEFKAASESIKVGDPFDESTFQGAQTSAMQLAKILAYVAIGKAEGATLITGGERLGSKGYFIKPTVFGDVKEDMRIVKEEIFGPVVTVTKFKSADEVINMANDSEYGLAAGIHTSNINTALKVADRVNAGTVWINTYNDFHHAVPFGGFNASGLGREMSVDALQNYLQVKAVRAKLDE
For the molecule B6, in assay [10], the binding result is on record as “no binding”.
